From doi:10.1101/2020.08.13.249029
Results are given in words; binding and its absence hold for the method and conditions named. Binding seen in cells or lysates may run through a third protein. Some entries that bind do so weakly or less than the wild type.

Amino acid sequences for entries named in this document (tags omitted).
UniProt Q92786: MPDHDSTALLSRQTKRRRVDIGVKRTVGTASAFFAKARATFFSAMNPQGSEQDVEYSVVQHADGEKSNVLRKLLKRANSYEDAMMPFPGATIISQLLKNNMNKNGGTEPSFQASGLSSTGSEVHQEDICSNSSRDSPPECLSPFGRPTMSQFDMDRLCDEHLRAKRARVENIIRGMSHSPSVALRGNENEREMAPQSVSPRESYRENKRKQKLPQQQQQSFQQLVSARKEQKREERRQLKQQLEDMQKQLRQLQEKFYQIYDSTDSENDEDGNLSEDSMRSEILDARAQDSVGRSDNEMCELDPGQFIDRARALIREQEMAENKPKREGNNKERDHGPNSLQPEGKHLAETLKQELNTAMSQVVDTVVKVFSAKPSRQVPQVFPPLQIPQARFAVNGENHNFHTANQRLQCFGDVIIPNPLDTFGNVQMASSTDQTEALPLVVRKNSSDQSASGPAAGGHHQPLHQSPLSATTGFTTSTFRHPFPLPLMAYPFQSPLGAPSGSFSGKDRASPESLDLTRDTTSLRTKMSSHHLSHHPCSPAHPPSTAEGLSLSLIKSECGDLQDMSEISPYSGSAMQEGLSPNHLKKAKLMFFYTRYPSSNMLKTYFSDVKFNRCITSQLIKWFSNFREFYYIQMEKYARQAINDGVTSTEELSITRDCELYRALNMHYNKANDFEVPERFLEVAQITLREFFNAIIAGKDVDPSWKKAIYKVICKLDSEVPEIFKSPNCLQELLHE

T1: ASCL1 (human (endogenous in NCI-H2107)) (UniProt P50553)
T1 sequence: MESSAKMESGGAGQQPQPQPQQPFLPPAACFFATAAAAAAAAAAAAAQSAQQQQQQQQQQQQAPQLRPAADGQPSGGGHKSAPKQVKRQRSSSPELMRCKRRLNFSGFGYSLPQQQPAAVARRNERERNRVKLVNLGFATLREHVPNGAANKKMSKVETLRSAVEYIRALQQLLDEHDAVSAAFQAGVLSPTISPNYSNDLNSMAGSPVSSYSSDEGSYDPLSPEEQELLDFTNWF


Biological target: T1, ASCL1 (human (endogenous in NCI-H2107))
Assay: co-IP

binding | Molecule
binds | PROX1 (from UniProt Q92786 1-737)
binds | NKX2-1 (protein, UniProt P43699 1-371) MSMSPKHTTPFSVSDILSPLEESYKKVGMEGGGLGAPLAAYRQGQAAPPTAAMQQHAVGHHGAVTAAYHMTAAGVPQLSHSAVGGYCNGNLGNMSELPPYQDTMRNSASGPGWYGANPDPRFPAISRFMGPASGMNMSGMGGLGSLGDVSKNMAPLPSAPRRKRRVLFSQAQVYELERRFKQQKYLSAPEREHLASMIHLTPTQVKIWFQNHRYKMKRQAKDKAAQQQLQQDSGGGGGGGGTGCPQQQQAQQQSPRRVAVPVLVKDGKPCQAGAPAPGAASLQGHAQQQAQHQAQAAQAAAAAISVGSGGAGLGAHPGHQPGSAGQSPDLAHHAASPAALQGQVSSLSHLNSSGSDYGTMSCSTLLYGRTW
